# ± gives the standard deviation of the averaged measurements. Only a part is listed here, and it is no random draw. Most entries show no effect beyond the scatter of the controls.
# By UniProt entry, the sequences of proteins in these tests, tags left out. Where a name states a change or a piece, a line headed by the entry shows the natural chain unless it says otherwise.
# UniProt Q8N6H7: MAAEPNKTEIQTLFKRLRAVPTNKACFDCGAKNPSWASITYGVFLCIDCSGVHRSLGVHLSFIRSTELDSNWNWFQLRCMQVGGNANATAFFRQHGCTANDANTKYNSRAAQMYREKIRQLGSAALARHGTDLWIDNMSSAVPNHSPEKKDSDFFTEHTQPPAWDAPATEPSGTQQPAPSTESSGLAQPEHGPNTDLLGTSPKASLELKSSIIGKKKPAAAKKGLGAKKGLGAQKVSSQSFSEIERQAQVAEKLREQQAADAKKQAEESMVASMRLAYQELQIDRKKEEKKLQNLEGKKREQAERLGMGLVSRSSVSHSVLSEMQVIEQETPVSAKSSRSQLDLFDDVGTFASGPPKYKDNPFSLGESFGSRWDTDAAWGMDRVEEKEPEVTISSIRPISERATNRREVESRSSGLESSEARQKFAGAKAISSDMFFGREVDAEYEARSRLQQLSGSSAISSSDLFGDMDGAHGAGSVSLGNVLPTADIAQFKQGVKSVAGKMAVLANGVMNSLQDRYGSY
# UniProt Q8IY63: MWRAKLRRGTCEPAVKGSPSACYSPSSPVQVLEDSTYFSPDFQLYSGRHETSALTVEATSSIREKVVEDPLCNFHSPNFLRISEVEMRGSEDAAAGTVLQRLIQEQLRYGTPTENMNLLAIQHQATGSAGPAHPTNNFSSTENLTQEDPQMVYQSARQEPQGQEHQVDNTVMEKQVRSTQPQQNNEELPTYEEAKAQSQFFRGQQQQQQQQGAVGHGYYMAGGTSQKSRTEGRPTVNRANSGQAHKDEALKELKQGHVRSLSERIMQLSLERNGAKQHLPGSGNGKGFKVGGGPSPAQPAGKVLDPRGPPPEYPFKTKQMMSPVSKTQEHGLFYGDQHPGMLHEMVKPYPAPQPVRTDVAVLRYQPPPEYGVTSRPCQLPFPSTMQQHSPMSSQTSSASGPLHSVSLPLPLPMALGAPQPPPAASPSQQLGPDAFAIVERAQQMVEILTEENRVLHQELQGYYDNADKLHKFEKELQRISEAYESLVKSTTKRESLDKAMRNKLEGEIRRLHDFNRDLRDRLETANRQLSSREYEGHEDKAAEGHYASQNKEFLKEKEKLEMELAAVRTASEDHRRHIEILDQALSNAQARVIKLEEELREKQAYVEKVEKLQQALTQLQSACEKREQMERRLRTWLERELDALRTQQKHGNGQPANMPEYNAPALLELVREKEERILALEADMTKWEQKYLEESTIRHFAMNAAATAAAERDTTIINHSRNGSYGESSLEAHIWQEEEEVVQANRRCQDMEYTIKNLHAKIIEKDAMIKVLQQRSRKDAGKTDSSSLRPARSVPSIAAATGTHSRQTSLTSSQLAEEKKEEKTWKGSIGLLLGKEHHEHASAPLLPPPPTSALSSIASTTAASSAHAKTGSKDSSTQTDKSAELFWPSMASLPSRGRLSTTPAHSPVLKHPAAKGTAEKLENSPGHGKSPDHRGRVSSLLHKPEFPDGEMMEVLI
# UniProt Q8N122, whole entry: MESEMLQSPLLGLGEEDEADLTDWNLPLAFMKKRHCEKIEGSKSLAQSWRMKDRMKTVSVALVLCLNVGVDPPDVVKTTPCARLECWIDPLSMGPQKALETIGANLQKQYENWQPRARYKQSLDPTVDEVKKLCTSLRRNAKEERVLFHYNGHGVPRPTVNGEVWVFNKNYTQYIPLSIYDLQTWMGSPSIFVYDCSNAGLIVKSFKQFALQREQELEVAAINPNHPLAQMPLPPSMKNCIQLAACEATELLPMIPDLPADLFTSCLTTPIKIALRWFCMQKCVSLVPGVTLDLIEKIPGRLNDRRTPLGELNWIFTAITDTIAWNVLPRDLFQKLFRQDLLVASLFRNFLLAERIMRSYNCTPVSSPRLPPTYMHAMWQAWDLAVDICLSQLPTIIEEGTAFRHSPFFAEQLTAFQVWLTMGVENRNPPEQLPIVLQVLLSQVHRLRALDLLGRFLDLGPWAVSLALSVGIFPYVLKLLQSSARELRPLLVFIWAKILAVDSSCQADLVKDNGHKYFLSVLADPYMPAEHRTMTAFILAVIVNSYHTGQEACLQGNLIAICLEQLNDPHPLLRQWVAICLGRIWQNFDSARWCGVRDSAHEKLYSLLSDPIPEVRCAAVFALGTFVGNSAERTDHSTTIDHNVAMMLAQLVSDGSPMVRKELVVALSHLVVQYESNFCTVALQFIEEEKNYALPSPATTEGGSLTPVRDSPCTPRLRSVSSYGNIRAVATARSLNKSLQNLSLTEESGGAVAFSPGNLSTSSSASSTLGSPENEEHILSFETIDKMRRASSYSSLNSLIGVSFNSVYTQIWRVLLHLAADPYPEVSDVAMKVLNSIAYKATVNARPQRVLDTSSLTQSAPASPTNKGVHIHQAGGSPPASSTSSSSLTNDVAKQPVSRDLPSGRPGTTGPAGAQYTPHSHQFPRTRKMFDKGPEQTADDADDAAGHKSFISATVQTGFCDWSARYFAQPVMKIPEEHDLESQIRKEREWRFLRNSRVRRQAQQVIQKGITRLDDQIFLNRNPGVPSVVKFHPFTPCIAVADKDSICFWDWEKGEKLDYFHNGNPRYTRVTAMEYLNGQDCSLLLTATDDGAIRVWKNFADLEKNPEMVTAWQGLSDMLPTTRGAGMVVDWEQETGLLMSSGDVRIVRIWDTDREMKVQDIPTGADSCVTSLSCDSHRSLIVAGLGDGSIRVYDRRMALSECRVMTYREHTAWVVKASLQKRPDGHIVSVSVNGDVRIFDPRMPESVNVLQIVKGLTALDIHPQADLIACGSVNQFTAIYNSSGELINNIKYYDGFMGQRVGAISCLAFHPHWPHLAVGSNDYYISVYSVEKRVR
# UniProt Q8IYU2: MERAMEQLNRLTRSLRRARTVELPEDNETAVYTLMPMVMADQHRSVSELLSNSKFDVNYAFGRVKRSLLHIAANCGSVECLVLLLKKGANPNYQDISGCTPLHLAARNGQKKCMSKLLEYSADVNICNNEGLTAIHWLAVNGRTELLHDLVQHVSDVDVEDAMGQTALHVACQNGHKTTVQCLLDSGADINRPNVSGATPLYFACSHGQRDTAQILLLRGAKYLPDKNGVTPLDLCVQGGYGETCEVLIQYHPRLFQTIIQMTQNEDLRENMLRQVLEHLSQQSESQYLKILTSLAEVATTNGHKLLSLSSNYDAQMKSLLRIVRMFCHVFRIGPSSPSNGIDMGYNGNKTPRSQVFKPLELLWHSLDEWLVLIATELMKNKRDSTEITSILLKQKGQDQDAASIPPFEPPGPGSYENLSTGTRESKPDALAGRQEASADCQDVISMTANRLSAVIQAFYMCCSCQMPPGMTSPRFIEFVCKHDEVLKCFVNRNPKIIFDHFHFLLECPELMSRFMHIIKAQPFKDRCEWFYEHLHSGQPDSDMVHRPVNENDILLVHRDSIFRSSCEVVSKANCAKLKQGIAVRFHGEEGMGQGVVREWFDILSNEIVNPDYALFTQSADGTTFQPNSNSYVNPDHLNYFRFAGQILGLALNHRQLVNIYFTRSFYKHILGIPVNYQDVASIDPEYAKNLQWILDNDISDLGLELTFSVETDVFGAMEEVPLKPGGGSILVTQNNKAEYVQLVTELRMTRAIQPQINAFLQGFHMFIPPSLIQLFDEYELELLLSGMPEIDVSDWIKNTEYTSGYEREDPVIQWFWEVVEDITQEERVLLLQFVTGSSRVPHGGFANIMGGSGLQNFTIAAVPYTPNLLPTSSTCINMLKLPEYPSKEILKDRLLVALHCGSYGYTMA
# UniProt Q8N357: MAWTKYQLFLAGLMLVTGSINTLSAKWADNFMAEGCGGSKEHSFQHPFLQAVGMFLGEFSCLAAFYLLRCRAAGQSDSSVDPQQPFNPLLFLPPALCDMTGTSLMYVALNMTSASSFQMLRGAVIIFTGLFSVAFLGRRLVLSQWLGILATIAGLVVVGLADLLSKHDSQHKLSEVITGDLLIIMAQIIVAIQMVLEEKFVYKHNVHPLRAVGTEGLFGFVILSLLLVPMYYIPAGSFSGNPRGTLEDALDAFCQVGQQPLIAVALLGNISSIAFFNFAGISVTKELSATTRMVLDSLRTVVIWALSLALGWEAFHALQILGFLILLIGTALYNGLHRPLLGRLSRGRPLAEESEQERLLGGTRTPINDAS
# UniProt Q8N4J0: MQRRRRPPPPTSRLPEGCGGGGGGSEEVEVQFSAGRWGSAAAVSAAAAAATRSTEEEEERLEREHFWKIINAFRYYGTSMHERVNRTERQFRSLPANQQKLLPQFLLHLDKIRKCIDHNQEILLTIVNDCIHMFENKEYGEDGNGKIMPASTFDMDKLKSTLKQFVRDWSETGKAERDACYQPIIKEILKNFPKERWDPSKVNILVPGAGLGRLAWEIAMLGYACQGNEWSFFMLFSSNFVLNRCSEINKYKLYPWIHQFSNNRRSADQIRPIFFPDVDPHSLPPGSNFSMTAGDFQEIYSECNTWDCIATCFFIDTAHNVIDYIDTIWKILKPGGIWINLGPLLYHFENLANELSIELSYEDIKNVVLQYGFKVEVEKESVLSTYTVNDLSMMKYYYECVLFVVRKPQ
# UniProt Q8N511: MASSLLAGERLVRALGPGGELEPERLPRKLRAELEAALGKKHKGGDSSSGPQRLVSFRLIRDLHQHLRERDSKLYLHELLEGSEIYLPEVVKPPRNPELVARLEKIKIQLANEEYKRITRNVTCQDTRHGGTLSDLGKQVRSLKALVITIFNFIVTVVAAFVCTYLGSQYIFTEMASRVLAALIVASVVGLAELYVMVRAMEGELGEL
# UniProt Q8IYB7: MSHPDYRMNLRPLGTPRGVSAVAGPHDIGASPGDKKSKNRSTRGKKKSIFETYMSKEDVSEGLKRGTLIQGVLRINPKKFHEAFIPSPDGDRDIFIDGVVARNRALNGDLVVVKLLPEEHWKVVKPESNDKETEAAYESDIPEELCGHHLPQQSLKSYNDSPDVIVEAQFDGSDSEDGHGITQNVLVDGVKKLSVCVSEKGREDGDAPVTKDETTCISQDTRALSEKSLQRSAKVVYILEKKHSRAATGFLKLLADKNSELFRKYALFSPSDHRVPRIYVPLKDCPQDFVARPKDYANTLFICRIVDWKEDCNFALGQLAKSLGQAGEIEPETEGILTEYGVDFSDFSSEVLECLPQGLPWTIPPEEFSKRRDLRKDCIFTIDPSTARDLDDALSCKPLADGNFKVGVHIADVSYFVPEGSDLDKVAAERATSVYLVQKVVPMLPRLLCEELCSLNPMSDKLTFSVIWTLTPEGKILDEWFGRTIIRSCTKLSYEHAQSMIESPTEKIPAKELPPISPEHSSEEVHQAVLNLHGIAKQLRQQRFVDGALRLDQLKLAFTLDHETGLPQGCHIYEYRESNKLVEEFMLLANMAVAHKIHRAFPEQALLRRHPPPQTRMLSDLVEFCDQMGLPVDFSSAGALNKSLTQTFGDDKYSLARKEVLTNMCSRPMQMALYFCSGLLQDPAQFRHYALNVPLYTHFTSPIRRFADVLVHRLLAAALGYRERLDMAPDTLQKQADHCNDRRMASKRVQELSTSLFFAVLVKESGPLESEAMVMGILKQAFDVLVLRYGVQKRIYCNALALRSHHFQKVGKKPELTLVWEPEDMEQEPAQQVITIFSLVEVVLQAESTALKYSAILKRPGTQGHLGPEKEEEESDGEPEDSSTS
# UniProt Q8N5M4: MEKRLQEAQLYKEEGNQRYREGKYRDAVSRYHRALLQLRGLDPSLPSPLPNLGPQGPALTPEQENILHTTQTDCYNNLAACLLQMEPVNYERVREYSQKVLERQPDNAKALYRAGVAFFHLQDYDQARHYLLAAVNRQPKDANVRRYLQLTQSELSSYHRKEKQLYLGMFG
# UniProt Q8N1G2: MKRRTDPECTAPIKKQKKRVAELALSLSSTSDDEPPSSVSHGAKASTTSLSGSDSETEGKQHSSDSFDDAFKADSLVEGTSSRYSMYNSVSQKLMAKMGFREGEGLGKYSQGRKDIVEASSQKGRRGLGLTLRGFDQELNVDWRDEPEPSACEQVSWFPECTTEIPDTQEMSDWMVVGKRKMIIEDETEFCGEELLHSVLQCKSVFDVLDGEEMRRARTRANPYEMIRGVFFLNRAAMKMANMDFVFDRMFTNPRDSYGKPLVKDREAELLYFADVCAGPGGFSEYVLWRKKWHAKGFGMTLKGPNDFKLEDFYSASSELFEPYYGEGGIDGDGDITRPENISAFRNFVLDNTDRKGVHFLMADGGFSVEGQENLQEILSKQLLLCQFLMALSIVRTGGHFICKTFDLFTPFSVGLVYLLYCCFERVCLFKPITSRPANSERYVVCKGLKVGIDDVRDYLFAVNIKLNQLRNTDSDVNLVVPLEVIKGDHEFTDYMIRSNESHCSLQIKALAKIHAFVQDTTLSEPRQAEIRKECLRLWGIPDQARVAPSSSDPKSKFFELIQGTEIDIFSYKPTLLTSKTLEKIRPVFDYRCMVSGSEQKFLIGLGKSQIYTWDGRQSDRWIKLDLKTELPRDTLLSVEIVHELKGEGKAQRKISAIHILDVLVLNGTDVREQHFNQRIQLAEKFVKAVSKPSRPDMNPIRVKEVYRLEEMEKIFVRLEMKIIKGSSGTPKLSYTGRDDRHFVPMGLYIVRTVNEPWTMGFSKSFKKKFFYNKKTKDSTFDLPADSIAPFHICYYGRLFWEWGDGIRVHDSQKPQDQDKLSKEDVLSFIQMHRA
# Compound: Nc1ncnc2c1ncn2[C@@H]1O[C@H](COP(=O)(O)OP(=O)(O)OP(=O)(O)O)[C@@H](O)[C@H]1O [adenosine triphosphate]
# Assay: NP40-soluble protein abundance relative to vehicle (solubility fold change) (ratio); higher = more soluble protein in presence of ATP
# Method in brief: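 Data come from three independent experiments in which Dounce-homogenised Jurkat crude lysate was treated at eight concentrations from 0.1 to 10 mM. Treatment ran 10 min at room temperature and then 3 min at 37 °C, after which 0.8% NP40 and benzonase were added for 60 min at 4 °C before ultracentrifugation. The supernatant underwent TMT labelling and LC-MS/MS, and vsn-normalised intensities were expressed as fold change against the detergent-processed vehicle in each replicate.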
Target,NP40-soluble protein abundance (concentration: 0.1mM),NP40-soluble protein abundance (concentration: 0.5mM)
C12orf29 (UniProt Q8N999),1.06 ± 0.037,1.04 ± 0.014
RPUSD2 (UniProt Q8IZ73),1.07 ± 0.043,1.05 ± 0.052
UniProt Q8IWY9 and related entries,1.01 ± 0.04,0.9767 ± 0.0096
UniProt Q8NEZ4 and related entries,1.024 ± 0.01,1.03 ± 0.038
UniProt Q8IZE3-2,0.999 ± 0.043,1.02 ± 0.079
SHCBP1 (UniProt Q8NEM2),1.06 ± 0.081,1.01 ± 0.056
UniProt Q8N2K0 and related entries,1.06 ± 0.047,1.04 ± 0.058
PDZD8 (UniProt Q8NEN9),1.03 ± 0.011,1.01 ± 0.042
TOR1AIP2 (UniProt Q8NFQ8),0.937 ± 0.045,0.885 ± 0.044
UniProt Q8N0V3,0.963 ± 0.082,0.972 ± 0.06
ANKRD13A (UniProt Q8IZ07),1.08 ± 0.14,1.02 ± 0.043
UniProt Q8ND56 and related entries,0.99 ± 0.012,0.994 ± 0.041
UniProt Q8IXB1 and related entries,1.03 ± 0.092,0.998 ± 0.066
UniProt Q8NDD1 and related entries,0.974 ± 0.089,0.983 ± 0.069
REXO1 (UniProt Q8N1G1),1.11 ± 0.13,1.01 ± 0.026
UniProt Q8N3X6 and related entries,0.877 ± 0.1,0.925 ± 0.039
UniProt Q8N9V3 and related entries,1.06 ± 0.031,1.04 ± 0.039
UniProt Q8N5Y8 and related entries,1.05 ± 0.014,1.06 ± 0.014
ARFGAP2 (UniProt Q8N6H7),1 ± 0.04,0.975 ± 0.04
UniProt Q8IZ21 and related entries,0.996 ± 0.013,0.955 ± 0.023
UniProt Q8IX12 and related entries,1 ± 0.044,0.986 ± 0.058
UniProt Q8IXW5 and related entries,1.03 ± 0.028,1.01 ± 0.044
UniProt Q8IY63 and related entries,0.909 ± 0.035,0.95 ± 0.03
CXorf38 (UniProt Q8TB03),0.988 ± 0.014,0.955 ± 0.022

Target,NP40-soluble protein abundance (concentration: 0.1mM),NP40-soluble protein abundance (concentration: 0.5mM)
UniProt Q8NFD5 and related entries,0.999 ± 0.012,1.02 ± 0.072
PPP1R35 (UniProt Q8TAP8),0.906 ± 0.12,0.954 ± 0.023
UniProt Q8N8K9 and related entries,0.997 ± 0.097,0.982 ± 0.027
UniProt Q8TAA3-5|Q8TAA3,0.965 ± 0.036,0.921 ± 0.018
UniProt Q8N122 and related entries,1.05 ± 0.049,1.01 ± 0.044
TTL (UniProt Q8NG68),1.09 ± 0.05,0.995 ± 0.045
UniProt Q8NEY8 and related entries,0.97 ± 0.12,0.968 ± 0.055
UniProt Q8IYU2 and related entries,1.02 ± 0.011,1.02 ± 0.027
UniProt Q8N9M1 and related entries,0.97 ± 0.035,0.92 ± 0.026
WDFY1 (UniProt Q8IWB7),1.06 ± 0.07,1.01 ± 0.06
UniProt Q8NBJ5,1.04 ± 0.06,1 ± 0.026
GUF1 (UniProt Q8N442),1.16 ± 0.1,1.12 ± 0.049
Q8N655 (UniProt Q96JN0),0.908 ± 0.076,1.06 ± 0.089
COMMD1 (UniProt Q8N668),0.913 ± 0.1,0.901 ± 0.15
NUP37 (UniProt Q8NFH4),1.02 ± 0.052,0.992 ± 0.062
NFATC2IP (UniProt Q8NCF5),1.18 ± 0.29,0.904 ± 0.051
UniProt Q8IZP0-3|Q8IZP0-5|Q8IZP0-9|A0A0A0MRT6|B6VEX4 and related entries,0.949 ± 0.062,0.934 ± 0.035
UniProt Q8N5Z0 and related entries,1.15 ± 0.25,1.03 ± 0.078
PRPF38A (UniProt Q8NAV1),0.991 ± 0.067,1.04 ± 0.11
GSTCD (UniProt Q8NEC7),1.03 ± 0.053,0.989 ± 0.05
UniProt Q8N2F6 and related entries,1.02 ± 0.055,1.01 ± 0.041
UniProt Q8N163,0.939 ± 0.071,0.966 ± 0.094
UniProt Q8TAA9 and related entries,1.09 ± 0.16,1.22 ± 0.11
UniProt Q8N8E3 and related entries,1.05 ± 0.067,1.09 ± 0.043

Target,NP40-soluble protein abundance (concentration: 0.1mM),NP40-soluble protein abundance (concentration: 0.5mM)
UniProt Q8N357,1.01 ± 0.045,0.995 ± 0.042
UniProt Q8N4V1 and related entries,0.889 ± 0.097,0.842 ± 0.11
UniProt Q8NG31 and related entries,1.01 ± 0.012,1.03 ± 0.051
UniProt Q8N4J0,1.06 ± 0.13,1.02 ± 0.084
AGGF1 (UniProt Q8N302),1 ± 0.045,1.02 ± 0.14
CKAP2L (UniProt Q8IYA6),0.931 ± 0.066,0.986 ± 0.055
UniProt Q8N0Z3,1.02 ± 0.039,0.926 ± 0.033
UniProt Q8N0Y2 and related entries,0.972 ± 0.13,1.073 ± 0.0015
TMEM199 (UniProt Q8N511),0.855 ± 0.082,0.844 ± 0.096
DIS3L2 (UniProt Q8IYB7),1.04 ± 0.028,1.04 ± 0.042
UniProt Q8N5Y2 and related entries,1.03 ± 0.098,1.22 ± 0.052
GADD45GIP1 (UniProt Q8TAE8),0.946 ± 0.22,0.829 ± 0.17
TTC9C (UniProt Q8N5M4),0.914 ± 0.053,0.92 ± 0.11
UniProt Q8NFV4 and related entries,0.944 ± 0.063,0.95 ± 0.15
DDHD1 (UniProt Q8NEL9),1.02 ± 0.016,1.01 ± 0.025
UniProt Q8IW45,1 ± 0.019,0.992 ± 0.028
UniProt Q8NI60 and related entries,0.972 ± 0.024,0.999 ± 0.048
UniProt Q8IZH2 and related entries,0.995 ± 0.033,1.04 ± 0.03
SPATA5 (UniProt Q8NB90),1.11 ± 0.043,1.35 ± 0.058
UniProt Q8IZM8,0.993 ± 0.011,0.99 ± 0.029
CADM4 (UniProt Q8NFZ8),1.14 ± 0.11,1.12 ± 0.044
ALDH16A1 (UniProt Q8IZ83),1.01 ± 0.062,1.02 ± 0.079
NUBPL (UniProt Q8TB37),1.024 ± 0.0096,1.05 ± 0.024
UniProt Q8N5L8,0.945 ± 0.049,0.912 ± 0.072

Target,NP40-soluble protein abundance (concentration: 0.1mM),NP40-soluble protein abundance (concentration: 0.5mM)
UniProt Q8NHV4 and related entries,0.964 ± 0.03,1 ± 0.013
UniProt Q8N6T7 and related entries,1 ± 0.058,1.03 ± 0.066
UniProt Q8NDX5 and related entries,0.972 ± 0.035,1.04 ± 0.1
UniProt Q8N6G5 and related entries,1.04 ± 0.11,1 ± 0.062
UniProt Q8NDV3 and related entries,0.941 ± 0.081,1.01 ± 0.068
UniProt Q8N9N2-2|Q8N9N2,1.05 ± 0.064,1.04 ± 0.065
UniProt Q8NCR0 and related entries,1.07 ± 0.11,1.13 ± 0.071
ZC3H7A (UniProt Q8IWR0),1.04 ± 0.062,1.05 ± 0.045
UniProt Q8TB61 and related entries,0.998 ± 0.036,0.966 ± 0.12
RP9 (UniProt Q8TA86),0.951 ± 0.071,0.929 ± 0.13
UniProt Q8N1G2,1.05 ± 0.067,1.04 ± 0.045
CNNM3 (UniProt Q8NE01),1.08 ± 0.058,1.02 ± 0.057
ENGASE (UniProt Q8NFI3),1.101 ± 0.0088,1.1 ± 0.057
MRPL41 (UniProt Q8IXM3),0.784 ± 0.3,0.901 ± 0.29
UBAC2 (UniProt Q8NBM4),0.988 ± 0.059,0.98 ± 0.042
GALNT6 (UniProt Q8NCL4),1.05 ± 0.12,1.15 ± 0.18
ARL6IP6 (UniProt Q8N6S5),1.01 ± 0.052,1.02 ± 0.042
UniProt Q8NHH9 and related entries,1.12 ± 0.039,1.05 ± 0.044
CLIP4 (UniProt Q8N3C7),1.1 ± 0.043,1.22 ± 0.14
CISD2 (UniProt Q8N5K1),1.04 ± 0.047,0.988 ± 0.045
LZTR1 (UniProt Q8N653),1.02 ± 0.04,0.931 ± 0.022
HSCB (UniProt Q8IWL3),1 ± 0.2,0.98 ± 0.22
UniProt Q8N5U6 and related entries,1.02 ± 0.063,1.05 ± 0.038
C2orf69 (UniProt Q8N8R5),1.03 ± 0.053,1.02 ± 0.044

# A second format for some results above:
Target	NP40-soluble protein abundance (concentration: 0.1mM)	NP40-soluble protein abundance (concentration: 0.5mM)
UniProt Q8NHV4 and related entries	0.964 ± 0.03	1 ± 0.013
UniProt Q8N6G5 and related entries	1.04 ± 0.11	1 ± 0.062
UniProt Q8NCR0 and related entries	1.07 ± 0.11	1.13 ± 0.071
UniProt Q8TB61 and related entries	0.998 ± 0.036	0.966 ± 0.12
RP9 (UniProt Q8TA86)	0.951 ± 0.071	0.929 ± 0.13
UniProt Q8N5U6 and related entries	1.02 ± 0.063	1.05 ± 0.038

# Next records.

Target,NP40-soluble protein abundance (concentration: 0.1mM),NP40-soluble protein abundance (concentration: 0.5mM)
FAM126B (UniProt Q8IXS8),1.03 ± 0.026,0.957 ± 0.024
UniProt Q8IW41 and related entries,1.042 ± 0.0079,1.03 ± 0.083
TTC5 (UniProt Q8N0Z6),0.982 ± 0.024,0.954 ± 0.042
SYTL1 (UniProt Q8IYJ3),1.03 ± 0.034,1 ± 0.08
LEMD2 (UniProt Q8NC56),1.08 ± 0.051,1.37 ± 0.054
NKAP (UniProt Q8N5F7),0.987 ± 0.035,1.03 ± 0.067
UniProt Q8TB72 and related entries,0.947 ± 0.043,0.94 ± 0.042
UniProt Q8NFH5 and related entries,1.06 ± 0.14,0.98 ± 0.062
DHX40 (UniProt Q8IX18),1.06 ± 0.013,1.03 ± 0.024
ZADH2 (UniProt Q8N4Q0),1.02 ± 0.047,0.991 ± 0.027
UniProt Q8IWF6,0.989 ± 0.054,1.03 ± 0.068
SLC15A4 (UniProt Q8N697),0.983 ± 0.055,0.953 ± 0.12
KRI1 (UniProt Q8N9T8),1.06 ± 0.022,1.04 ± 0.021
UniProt Q8N4C8 and related entries,0.986 ± 0.076,0.989 ± 0.046
UniProt Q8IY57 and related entries,1.07 ± 0.12,0.917 ± 0.015
VPS52 (UniProt Q8N1B4),1.06 ± 0.066,1.03 ± 0.054
UniProt Q8N9R8 and related entries,1.05 ± 0.06,1.03 ± 0.015
NUP43 (UniProt Q8NFH3),1.05 ± 0.082,1.01 ± 0.077
UniProt Q8NCW5,0.983 ± 0.088,0.943 ± 0.099
NUDCD3 (UniProt Q8IVD9),0.99 ± 0.042,1.03 ± 0.075
RYBP (UniProt Q8N488),0.996 ± 0.049,1.02 ± 0.029
UniProt Q8ND25 and related entries,0.967 ± 0.0068,0.986 ± 0.088
UniProt Q8NCD3 and related entries,0.946 ± 0.06,0.935 ± 0.14
UniProt Q8IYS2 and related entries,1.07 ± 0.093,1.07 ± 0.076

# — the supplement of paper PMC6411743
